Source: PubChem BioAssay AID1347076 (National Center for Advancing Translational Sciences (NCATS), 2019)
The whole screen tested about 400,000 compounds, of which about 13,000 (3.2%) were called active. The inconclusive results got no clear call from the source; some entries with a clear call stand among them for comparison. Calls come from the whole dose curve; as a rule, active = well fitted cell-killing curve with a large enough effect; inconclusive = small, poorly fitted or top-dose-only effect, or effect the other way; inactive = flat fitted curve, though single readings scatter. Where the call is inconclusive, the potency comes from a doubtful curve fit.

Assay: qHTS assay for MDR1-selective chemotherapeutics: Primary screen using the drug-selected MDR subline cells KB-V1; note: nearly all actives have a fitted effect of over 60% in size
Conditions: KB-V1 MDR cells viability, CellTiter-Glo, 72 h; activity change, negative = cytotoxicity: at 46.1 µM (top of the series)
Procedure, shortened: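 Luminescent ATP read-out (CellTiter-Glo, 10 min) measures survival of drug-selected KB-V1 MDR cells after 72 h, 37 degrees C compound exposure. Medium: phenol-red-free DMEM, 10% FBS. Values from fitted concentration-response curves.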
% is set by controls: 0 for no effect and ±100 for the full control effect; potency is the fitted concentration of half-maximal effect.

Compound	Potency	activity change, negative = cytotoxicity
CCC(C)(C)NC(=O)CN(Cc1ccc2c(c1)OCO2)C(=O)CCC(=O)Nc1cc(C)ccn1	inconclusive: 9.2 µM [cytotoxic, partial curve, poor fit]	
CCOC(=O)[C@H]1[C@H]2COc3ccc(Br)cc3[C@H]2N2C(=O)CN(Cc3ccc(Cl)cc3)C(=O)[C@@]12C	inconclusive: 32.6 µM [cytotoxic, single point]	
CC(=O)c1ccc2c(ccc3ccccc32)c1	inconclusive: 29.1 µM [cytotoxic, single point]	
O=C(CSc1nnc(NC(=O)C2CC2)s1)Nc1cccc(F)c1	inconclusive: 16.4 µM [cytotoxic, single point]	
O=C(c1cc(-c2cccc(Cl)c2)nc2ccccc12)N1CCN(c2ccccn2)CC1	inconclusive: 20.6 µM [cytotoxic, partial curve]	
Cc1ccccc1-n1c(SCC(=O)c2cc(C)n(C)c2C)nnc1-c1cccnc1	inconclusive: 20.6 µM [cytotoxic, partial curve]	
Cc1cc(C)c(NC(=O)CCN2CCN(Cc3ccccc3)CC2)c(C)c1	inconclusive: 20.6 µM [cytotoxic, single point]	
COc1cccc(/C=C2/SC(=S)N(CC(=O)Nc3nccs3)C2=O)c1	inconclusive: 29.1 µM [rising, single point]	
Cc1cccc(/C=C/c2nc3ccccc3c(=O)n2Cc2ccccc2)c1	inconclusive: 13 µM [cytotoxic, partial curve]	
Cc1cc(NC(=O)CCN2C(=O)C3C4CCC(C4)C3C2=O)c(C)cc1Br (stereo not drawn)	active: 14.6 µM	
COc1ccc(/C=N/Nc2nc(-c3cccc(S(=O)(=O)N4CCCC4)c3)cs2)c(OC)c1	active: 2.59 µM	
CC(C)C(=O)OC1CCS(=O)(=O)c2sccc21 (stereo not drawn)	inconclusive: 20.6 µM [rising, single point]	
COc1ccc(CCNC(=O)CN2C(=O)COc3ccc(C)cc32)cc1OC		inactive: -6.8%
Cc1ccc(C(=O)Nc2ccc3ncccc3c2)cc1		inactive: 0%
COc1cc(OC)cc(OCC(O)Cn2cnc(-c3ccccc3)c2)c1 (stereo not drawn)	inconclusive: 13 µM [cytotoxic, partial curve]	
COc1ccc(CNC(=O)C(C)N(Cc2ccccc2OC)C(=O)c2snc(C(N)=O)c2N)cc1 (stereo not drawn)	inconclusive: 9.2 µM [cytotoxic, partial curve, poor fit]	
Cc1cc(C)c(-n2c(SCC(=O)N3CCOCC3)n[nH]c2=O)c(C)c1		inactive: 3.9%
CC(C)c1ccc(/C=c2\sc3n(c2=O)C(N)=C(C#N)C(c2ccc(C(C)C)cc2)C=3C(N)=O)cc1 (stereo not drawn)		inactive: 16.8%
COc1nc(Nc2nc3ccccc3c(=O)[nH]2)nc2ccc(C)cc12	inconclusive: 3.26 µM [cytotoxic, full curve, poor fit]	
CCn1nc(C)c(CCN(C)C(=O)Nc2ccc(C)c(Cl)c2)c1C		inactive: 8.36%
CCOC(=O)c1[nH]nc(-c2cc(CC)c(O)cc2O)c1-c1cscn1	inconclusive: 25.9 µM [cytotoxic, single point]	
CCCc1sc(N/N=C/c2ccccn2)nc1-c1ccc(F)cc1	active: 10.3 µM	

Compound	Potency	activity change, negative = cytotoxicity
CCc1c(C)nc2ncnn2c1Nc1ccccc1C	inconclusive: 14.6 µM [cytotoxic, partial curve]	
COc1cccc2c1OCC(CN1CCN(Cc3ccccc3)C(CCO)C1)=C2 (stereo not drawn)	inconclusive: 13 µM [cytotoxic, partial curve]	
COc1ccc(C(=O)N2CCC(C(=O)c3ccc(F)cc3)CC2)cc1	inconclusive: 20.6 µM [cytotoxic, partial curve, poor fit]	
CC(C)c1nc2oc3c(NCC4CCCO4)ncnc3c2c2c1COC(C)(C)C2 (stereo not drawn)	inconclusive: 2.31 µM [cytotoxic, full curve, poor fit]	
Cc1ccccc1/C=C/c1nc2ccccc2c(=O)n1CCc1ccccc1	active: 2.59 µM	
COC(=O)Cc1ccc(NC(=S)NCc2ccc(Cl)cc2)cc1	inconclusive: 0.0366 µM [rising, full curve]	
COc1cccc(-n2c(SCC(=O)N3CCc4ccccc43)nc3c([nH]c4ccccc43)c2=O)c1	inconclusive: 29.1 µM [rising, single point]	
Cc1cc(OCc2cc(C(=O)N(C)CC3CCOCC3)no2)cc(C)c1Cl	inconclusive: 29.1 µM [cytotoxic, single point]	
O=C(NCc1ccco1)C(c1ccccc1)N(Cc1ccccc1)C(=O)Cn1nnc2ccccc21 (stereo not drawn)	inconclusive: 29.1 µM [cytotoxic, single point]	
Cc1cccc(Nc2nc(NCC3CCCO3)nc(N)c2[N+](=O)[O-])c1 (stereo not drawn)	inconclusive: 2.06 µM [cytotoxic, full curve, poor fit]	
COc1ccccc1NC(=O)N(C)C[C@@H]1OCc2cn(nn2)CCCC(=O)N([C@H](C)CO)C[C@H]1C		inactive: 9.83%
O=C(O)CNC(=O)c1ccccc1F	inconclusive: 10.3 µM [rising, partial curve, poor fit]	
Cc1cc(C)c(O)c(-c2cc(C(=O)NCc3ccccc3)[nH]n2)c1		inactive: 2.77%
CCN1CCN(CCC(=O)Nc2cc(C)ccc2C)CC1	inconclusive: 7.31 µM [rising, partial curve, poor fit]	
CC(O/N=C\c1ccccc1O)C(=O)Nc1ccccc1C(=O)N1CCOCC1 (stereo not drawn)	inconclusive: 5.17 µM [cytotoxic, full curve]	
C=C(C)C1CC=C(C)/C(=N\NC(=S)Nc2ccc(C)cc2)C1 (stereo not drawn)	active: 16.4 µM	
CN(Cc1ccccc1N1CCCC1)C(=O)c1cc2cc(Cl)ccc2o1	inconclusive: 29.1 µM [cytotoxic, single point]	
O=C(Nc1ccc(F)cc1F)c1cccc2c1C(=O)N(C1CCCCC1)C2		inactive: 1.23%
CN(C)c1ccc(NC(=O)Nc2cccc(Cl)c2)cc1	active: 13 µM	
Cc1cc(C)c(S(=O)(=O)NCc2ccccn2)c(C)c1	inconclusive: 3.66 µM [rising, full curve, poor fit]	
COc1ccc(C2=NNC(=O)CC2)cc1	inconclusive: 5.8 µM [cytotoxic, full curve, poor fit]	

Quoted from the listing:
In Potency, `COc1cc(OC)cc(OCC(O)Cn2cnc(-c3ccccc3)c2)c1` (stereo not drawn) is listed with inconclusive: 13 µM [cytotoxic, partial curve]
In Potency, `CCOC(=O)[C@H]1[C@H]2COc3ccc(Br)cc3[C@H]2N2C(=O)CN(Cc3ccc(Cl)cc3)C(=O)[C@@]12C` is listed with inconclusive: 32.6 µM [cytotoxic, single point]
In activity change, negative = cytotoxicity, `CCn1nc(C)c(CCN(C)C(=O)Nc2ccc(C)c(Cl)c2)c1C` is listed with inactive: 8.36%
